Measurements reported in PMC3912212.
No constants are given. Whether binding was seen depends on the method and setting. Some entries that bind do so weakly or less than the wild type.

Chains of the proteins cited; added tags and fusions are not shown. Residues count along the entry.
UniProt O13024, residues 491-873: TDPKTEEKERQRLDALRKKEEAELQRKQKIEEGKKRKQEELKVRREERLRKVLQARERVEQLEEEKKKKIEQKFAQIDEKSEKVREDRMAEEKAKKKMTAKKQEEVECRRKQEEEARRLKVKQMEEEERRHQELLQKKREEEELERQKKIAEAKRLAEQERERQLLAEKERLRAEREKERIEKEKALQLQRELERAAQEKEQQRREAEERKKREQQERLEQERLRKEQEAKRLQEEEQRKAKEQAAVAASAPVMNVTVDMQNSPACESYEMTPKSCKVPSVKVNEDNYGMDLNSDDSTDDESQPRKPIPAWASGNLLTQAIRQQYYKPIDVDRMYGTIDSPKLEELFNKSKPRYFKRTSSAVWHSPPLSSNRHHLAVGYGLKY
UniProt Q6DE08: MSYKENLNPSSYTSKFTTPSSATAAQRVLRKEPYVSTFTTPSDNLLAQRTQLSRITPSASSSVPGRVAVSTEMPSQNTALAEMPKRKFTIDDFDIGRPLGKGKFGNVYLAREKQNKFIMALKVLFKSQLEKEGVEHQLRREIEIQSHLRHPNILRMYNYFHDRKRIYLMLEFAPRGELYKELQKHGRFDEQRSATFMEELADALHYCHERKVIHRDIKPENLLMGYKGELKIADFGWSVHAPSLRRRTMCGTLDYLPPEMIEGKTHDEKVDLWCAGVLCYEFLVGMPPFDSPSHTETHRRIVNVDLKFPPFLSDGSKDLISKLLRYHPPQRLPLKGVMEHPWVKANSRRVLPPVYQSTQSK

Biological target: INCENP a.a. 491-873 (coiled-coil domain and INBox) (Xenopus laevis) (UniProt O13024)
Assay: tandem affinity co-purification (Ni-NTA, then Strep-Tactin); INCENP 491-873 and Aurora-B co-expressed in E. coli; first pulled by the His tag on the INBox construct, then by the Strep-tag II on Aurora-B; read by SDS-PAGE

“Aurora-B-GFP (from UniProt Q6DE08 1-361) (enzyme)” was tested, and the binding was “binds”.
